{"source": "patent US20090172831A1", "about": "“Methods for the production of plants resistant to HPPD herbicides” (Syngenta Limited, priority 2000, published 2009)", "experiment_in_all_cases": "Glasshouse spray test, visible damage", "type_in_all_cases": "in vivo", "key": {"[1]": {"system": "untransformed tobacco plants variety Samsun", "details": "for difference in tolerance, named compound versus Structure I: control for the Pseudomonas HPPD plants; for fold more susceptible of the herbicide than of mesotrione: spray 0.0 to 2000 g/ha, assessed ~1 and 3 weeks after treatment", "experimental": "(§1) Plants are 1) untransformed tobacco plants variety Samsun expressing the endogenous tobacco (control) HPPD gene, 2) tobacco plants transformed to express Pseudomonas HPPD according to the examples herein and 3) tobacco plants transformed to express Wheat HPPD also according to the examples herein.\n(§2) Large numbers of plants are grown from seed in small pots in the glasshouse to the 5-7 leaf seedling stage and sprayed with a range of doses, suitably from 0.0 to 2000 g/ha, of different HPPD-inhibitor herbicides selected from compounds of Formula 1, 2, 3 and 4. Treatments are suitably Formulated in, for example, deionised water+0.5% Turbocharge™ surfactant or, alternatively, 50% acetone/water and applied at […] to a dozen or more replicates of each line and at each spray rate (where the plants were T1 plants (selfed progeny of primary transformants) and still segregating at normally 1:2:1) or, where, homozygous, 3-6 plants. The extent of visible damage in terms of bleaching of meristems and leaves, eventual necrosis and stunting of growth relative to unsprayed controls is assessed at ˜1 and 3 weeks after treatment. Data from susceptible segregants are excluded from the analysis. In summary, results obtained are as follows."}, "[2]": {"system": "tobacco plants transformed to express wheat HPPD", "experimental": "as §1, §2"}, "[3]": {"system": "tobacco plants transformed to express Pseudomonas HPPD"}}, "note": "Several values for one entry are separate records, joined by “and”; a condition that tells them apart may be missing. Equal values may be shown once. Some of these results come from one statement about several compounds together. Some compounds share one range, which may span the group rather than tell each member."}
{"smiles": "Cc1nc(C(F)(F)F)ccc1C(=O)C1C(=O)C(C)(C)C(=O)C(C)(C)C1=O", "note": "[Structure VII, 3-[[2-methyl-6-(trifluoromethyl)-3-pyridinyl]carbonyl]-4,4,6,6-tetramethylcyclohexane-1,3,5-trione]", "values": [{"measurement": "difference in tolerance, named compound versus Structure I", "setting": "[1]", "value": "0.3-0.5"}, {"measurement": "fold more susceptible of the herbicide than of mesotrione", "setting": "[1]", "value": "2-4 fold"}, {"measurement": "fold less susceptible of Structure II than of the named herbicide", "setting": "[2]", "value": "4-15 fold"}, {"measurement": "fold more tolerant of the named herbicide than of mesotrione or Structure II", "setting": "[3]", "value": "2-6 fold and 2-4 fold"}]}
{"smiles": "CC1(C)C(=O)C(C(=O)c2ccc(Cl)cc2[N+](=O)[O-])C(=O)C(C)(C)C1=O", "note": "[Structure V, 2-[2-nitro-4-chlorobenzoyl]-4,4,6,6-tetramethylcyclohexane-1,3,5-trione]", "values": [{"measurement": "difference in tolerance, named compound versus Structure I", "setting": "[1]", "value": "0.3-0.5"}, {"measurement": "fold more susceptible of the herbicide than of mesotrione", "setting": "[1]", "value": "2-4 fold"}, {"measurement": "fold less susceptible of Structure II than of the named herbicide", "setting": "[2]", "value": "4-15 fold"}, {"measurement": "fold less susceptible of mesotrione than of the named herbicide", "setting": "[2]", "value": "10-40 fold"}, {"measurement": "fold more tolerant of the named herbicide than of mesotrione or Structure II", "setting": "[3]", "value": "2-6 fold and 2-4 fold"}]}
{"smiles": "Cc1cc(C#N)ccc1C(=O)C1C(=O)C(C)(C)C(=O)C(C)(C)C1=O", "note": "[Structure VI, 2-[2-methyl-4-cyanobenzoyl]-4,4,6,6-tetramethylcyclohexane-1,3,5-trione]", "values": [{"measurement": "difference in tolerance, named compound versus Structure I", "setting": "[1]", "value": "0.3-0.5"}]}
